The source of these data is patent US9220264B2 (Singapore Health Services Pte Ltd., priority 2008, dated 2015).

The data set in a line: general procedure: Fmoc solid-phase peptide synthesis; Fmoc-Lys(Boc)-Wang resin (substitution 0.72 mmol/g); 0.5M HBTU/0.5M HOBT/2M DIEA in NMP. The conditions noted are these: whole synthesis, scale 0.08 mmol, TFA salt; acetic salt after lyophilization from 2% acetic acid.

HELM strings list residues between dots; [ac] is acetyl, [am] amide, other brackets name non-standard units.

For the substance “PEPTIDE1{R.G.R.K.V.V.R.R.K.K}|PEPTIDE2{R.G.R.K.V.V.R.R}$PEPTIDE1,PEPTIDE2,9:R3-8:R2$$$V2.0”, the crude yield is recorded as 90%, the isolated mass came out at 50 mg and the isolated yield stood at 27%.
